Results are given in words; binding and its absence hold for the method and conditions named. In cells and extracts the contact can be indirect. Here binding means that the protein was enriched with, or labelled near, the bait; the list need not be complete.
Target: T1, GSDMC (UniProt Q9BYG8)
T1 sequence: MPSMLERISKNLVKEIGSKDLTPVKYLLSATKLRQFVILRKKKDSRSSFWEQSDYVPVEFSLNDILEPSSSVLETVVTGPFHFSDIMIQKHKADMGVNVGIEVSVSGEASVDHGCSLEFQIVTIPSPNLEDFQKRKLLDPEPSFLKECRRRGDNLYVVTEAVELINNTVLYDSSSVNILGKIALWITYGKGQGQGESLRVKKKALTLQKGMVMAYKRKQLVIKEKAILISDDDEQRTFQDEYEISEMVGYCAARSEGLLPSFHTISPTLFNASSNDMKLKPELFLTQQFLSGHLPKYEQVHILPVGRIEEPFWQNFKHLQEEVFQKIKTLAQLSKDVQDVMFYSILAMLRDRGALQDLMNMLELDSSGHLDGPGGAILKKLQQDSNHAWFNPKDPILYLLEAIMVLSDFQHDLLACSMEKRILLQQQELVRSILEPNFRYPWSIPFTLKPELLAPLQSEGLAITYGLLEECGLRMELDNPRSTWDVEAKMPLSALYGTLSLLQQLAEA
Assay: proximity labelling; TurboID; A375 cells overexpressing GZMB and GSDMC, DdBIC (20 uM, 7 h), 100 uM biotin 10 min at 37 C, streptavidin magnetic beads, western blot

Chains of the proteins cited; added tags and fusions are not shown. Lines headed by an entry give the natural chain unless they say otherwise; changes in a name come on top.
UniProt P10144: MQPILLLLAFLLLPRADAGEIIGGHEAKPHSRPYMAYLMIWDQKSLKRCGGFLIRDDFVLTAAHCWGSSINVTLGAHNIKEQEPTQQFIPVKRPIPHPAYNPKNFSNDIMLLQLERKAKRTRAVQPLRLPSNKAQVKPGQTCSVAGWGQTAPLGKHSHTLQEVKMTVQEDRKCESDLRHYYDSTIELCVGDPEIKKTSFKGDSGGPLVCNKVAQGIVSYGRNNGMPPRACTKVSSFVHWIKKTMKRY

- binding: binds
Substance: granzyme B (from UniProt P10144) (enzyme)
